Some of the results follow. Residues, ends and D or L forms follow the SMILES beside them. *: point of attachment. Cbz = O=C(OCc1ccccc1)*
What was measured:
Experiment in all cases: log2 fold change, soluble protein after heating vs DMSO (PISA); higher = thermal stabilisation; K562 cells, 10 uM, 30 min; active = over 0.2 and 3.5 SD of the protein, either way, in both replicates (recomputed)
erlotinib = compound: C#Cc1cccc(Nc2ncnc3cc(OCCOC)c(OCCOC)cc23)c1 [erlotinib]
Outline: (§1)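 K562 cells (2×10^6 cells/mL) were treated with 10 μM compound for 30 min, and aliquots were heated for 3 min over 48°C-58°C. Pooled aliquots were extracted in PBS with 0.5% NP-40 at 4°C, and the supernatant after 21,000xg for 90 min was measured by TMTpro 16plex LC-MS/MS with channel sums equalised. Reported thermal stability, relative to control samples and from duplicates, is a log2 fold change.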

By UniProt entry, the sequences of proteins in these tests, tags left out. Where a name states a change or a piece, a line headed by the entry shows the natural chain unless it says otherwise.
UniProt Q9UI43: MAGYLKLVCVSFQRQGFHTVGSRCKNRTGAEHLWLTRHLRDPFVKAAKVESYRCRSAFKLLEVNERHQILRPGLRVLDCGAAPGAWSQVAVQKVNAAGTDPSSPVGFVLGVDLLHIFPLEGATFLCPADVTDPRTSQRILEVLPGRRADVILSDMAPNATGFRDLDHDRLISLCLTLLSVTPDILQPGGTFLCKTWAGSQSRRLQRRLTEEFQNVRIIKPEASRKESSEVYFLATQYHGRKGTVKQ
UniProt Q8NBR6: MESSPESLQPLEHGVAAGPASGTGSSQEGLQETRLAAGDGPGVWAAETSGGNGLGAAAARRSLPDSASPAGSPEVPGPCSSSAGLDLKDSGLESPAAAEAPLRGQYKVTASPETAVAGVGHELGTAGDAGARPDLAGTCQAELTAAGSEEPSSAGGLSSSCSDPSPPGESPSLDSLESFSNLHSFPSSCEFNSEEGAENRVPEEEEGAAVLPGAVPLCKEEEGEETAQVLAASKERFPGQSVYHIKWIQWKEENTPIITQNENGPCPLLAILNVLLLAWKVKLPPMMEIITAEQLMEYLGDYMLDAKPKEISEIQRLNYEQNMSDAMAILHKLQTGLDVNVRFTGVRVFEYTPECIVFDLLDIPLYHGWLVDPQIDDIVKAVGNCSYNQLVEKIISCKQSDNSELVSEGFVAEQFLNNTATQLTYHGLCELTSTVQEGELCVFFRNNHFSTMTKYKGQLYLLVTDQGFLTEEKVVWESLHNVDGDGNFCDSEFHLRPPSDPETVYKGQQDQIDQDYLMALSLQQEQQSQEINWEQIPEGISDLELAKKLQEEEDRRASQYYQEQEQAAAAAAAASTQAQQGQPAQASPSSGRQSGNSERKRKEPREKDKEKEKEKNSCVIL
UniProt O75030: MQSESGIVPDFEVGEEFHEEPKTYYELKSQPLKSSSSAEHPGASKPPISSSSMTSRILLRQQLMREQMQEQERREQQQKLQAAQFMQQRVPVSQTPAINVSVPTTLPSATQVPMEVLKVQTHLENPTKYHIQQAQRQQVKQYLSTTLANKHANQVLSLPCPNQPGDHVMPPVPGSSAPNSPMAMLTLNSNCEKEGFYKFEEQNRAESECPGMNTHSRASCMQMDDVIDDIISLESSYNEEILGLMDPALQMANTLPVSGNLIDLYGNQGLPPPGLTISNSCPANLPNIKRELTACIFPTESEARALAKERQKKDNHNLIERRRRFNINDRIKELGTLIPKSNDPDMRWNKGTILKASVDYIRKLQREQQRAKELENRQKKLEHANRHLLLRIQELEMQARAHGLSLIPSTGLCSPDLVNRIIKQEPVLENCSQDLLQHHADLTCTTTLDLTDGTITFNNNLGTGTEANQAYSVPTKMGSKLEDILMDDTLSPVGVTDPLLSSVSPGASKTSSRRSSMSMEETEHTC
UniProt Q29983, whole entry, looked up: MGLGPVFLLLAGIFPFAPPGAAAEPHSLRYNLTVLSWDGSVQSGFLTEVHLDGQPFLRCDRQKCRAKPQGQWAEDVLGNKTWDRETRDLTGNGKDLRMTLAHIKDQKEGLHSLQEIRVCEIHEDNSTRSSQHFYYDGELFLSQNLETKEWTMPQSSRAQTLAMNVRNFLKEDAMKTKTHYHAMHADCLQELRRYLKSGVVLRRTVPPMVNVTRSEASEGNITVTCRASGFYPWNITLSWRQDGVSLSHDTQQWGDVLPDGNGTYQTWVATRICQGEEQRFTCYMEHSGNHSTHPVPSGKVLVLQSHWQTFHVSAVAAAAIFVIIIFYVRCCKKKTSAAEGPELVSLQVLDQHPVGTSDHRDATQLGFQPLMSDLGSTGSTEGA
UniProt Q8N344: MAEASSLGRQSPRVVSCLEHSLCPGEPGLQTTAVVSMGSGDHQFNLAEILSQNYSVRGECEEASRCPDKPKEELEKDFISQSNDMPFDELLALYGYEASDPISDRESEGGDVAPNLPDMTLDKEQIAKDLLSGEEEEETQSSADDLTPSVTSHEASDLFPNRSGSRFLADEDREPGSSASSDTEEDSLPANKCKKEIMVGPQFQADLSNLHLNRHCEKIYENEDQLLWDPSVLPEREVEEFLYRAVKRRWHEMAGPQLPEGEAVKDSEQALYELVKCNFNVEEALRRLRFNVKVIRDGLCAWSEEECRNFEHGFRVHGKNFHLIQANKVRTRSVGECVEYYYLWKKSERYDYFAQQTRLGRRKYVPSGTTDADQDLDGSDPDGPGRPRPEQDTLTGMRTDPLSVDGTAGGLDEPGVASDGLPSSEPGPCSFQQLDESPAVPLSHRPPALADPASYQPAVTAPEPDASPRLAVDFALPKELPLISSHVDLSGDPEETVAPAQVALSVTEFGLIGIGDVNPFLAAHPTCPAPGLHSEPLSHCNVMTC
UniProt Q70IA6: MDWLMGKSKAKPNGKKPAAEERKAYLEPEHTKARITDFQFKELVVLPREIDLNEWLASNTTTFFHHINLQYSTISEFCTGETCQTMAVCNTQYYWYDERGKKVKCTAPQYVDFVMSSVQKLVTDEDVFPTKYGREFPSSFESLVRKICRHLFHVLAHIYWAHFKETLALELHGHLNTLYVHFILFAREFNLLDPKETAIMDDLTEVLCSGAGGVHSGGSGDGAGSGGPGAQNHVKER
UniProt Q9NPA3, whole entry, looked up: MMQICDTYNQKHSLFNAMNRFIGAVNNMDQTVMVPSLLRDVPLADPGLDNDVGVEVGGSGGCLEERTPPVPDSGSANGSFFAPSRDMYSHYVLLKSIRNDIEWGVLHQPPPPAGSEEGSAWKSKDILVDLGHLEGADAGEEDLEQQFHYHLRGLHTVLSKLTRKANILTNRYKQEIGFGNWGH
UniProt Q6NTE8: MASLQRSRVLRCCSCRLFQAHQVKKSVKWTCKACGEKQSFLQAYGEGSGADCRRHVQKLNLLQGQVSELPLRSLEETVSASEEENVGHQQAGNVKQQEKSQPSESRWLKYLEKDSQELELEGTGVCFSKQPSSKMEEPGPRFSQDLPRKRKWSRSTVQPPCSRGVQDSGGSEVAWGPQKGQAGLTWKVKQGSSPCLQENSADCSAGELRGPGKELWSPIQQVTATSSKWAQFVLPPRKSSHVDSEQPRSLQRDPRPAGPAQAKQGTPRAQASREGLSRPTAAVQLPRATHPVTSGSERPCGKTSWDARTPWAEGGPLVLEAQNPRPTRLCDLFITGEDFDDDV
UniProt Q13015: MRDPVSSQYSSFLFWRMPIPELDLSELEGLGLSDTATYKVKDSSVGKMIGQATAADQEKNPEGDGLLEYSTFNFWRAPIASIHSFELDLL
UniProt Q8TDZ2: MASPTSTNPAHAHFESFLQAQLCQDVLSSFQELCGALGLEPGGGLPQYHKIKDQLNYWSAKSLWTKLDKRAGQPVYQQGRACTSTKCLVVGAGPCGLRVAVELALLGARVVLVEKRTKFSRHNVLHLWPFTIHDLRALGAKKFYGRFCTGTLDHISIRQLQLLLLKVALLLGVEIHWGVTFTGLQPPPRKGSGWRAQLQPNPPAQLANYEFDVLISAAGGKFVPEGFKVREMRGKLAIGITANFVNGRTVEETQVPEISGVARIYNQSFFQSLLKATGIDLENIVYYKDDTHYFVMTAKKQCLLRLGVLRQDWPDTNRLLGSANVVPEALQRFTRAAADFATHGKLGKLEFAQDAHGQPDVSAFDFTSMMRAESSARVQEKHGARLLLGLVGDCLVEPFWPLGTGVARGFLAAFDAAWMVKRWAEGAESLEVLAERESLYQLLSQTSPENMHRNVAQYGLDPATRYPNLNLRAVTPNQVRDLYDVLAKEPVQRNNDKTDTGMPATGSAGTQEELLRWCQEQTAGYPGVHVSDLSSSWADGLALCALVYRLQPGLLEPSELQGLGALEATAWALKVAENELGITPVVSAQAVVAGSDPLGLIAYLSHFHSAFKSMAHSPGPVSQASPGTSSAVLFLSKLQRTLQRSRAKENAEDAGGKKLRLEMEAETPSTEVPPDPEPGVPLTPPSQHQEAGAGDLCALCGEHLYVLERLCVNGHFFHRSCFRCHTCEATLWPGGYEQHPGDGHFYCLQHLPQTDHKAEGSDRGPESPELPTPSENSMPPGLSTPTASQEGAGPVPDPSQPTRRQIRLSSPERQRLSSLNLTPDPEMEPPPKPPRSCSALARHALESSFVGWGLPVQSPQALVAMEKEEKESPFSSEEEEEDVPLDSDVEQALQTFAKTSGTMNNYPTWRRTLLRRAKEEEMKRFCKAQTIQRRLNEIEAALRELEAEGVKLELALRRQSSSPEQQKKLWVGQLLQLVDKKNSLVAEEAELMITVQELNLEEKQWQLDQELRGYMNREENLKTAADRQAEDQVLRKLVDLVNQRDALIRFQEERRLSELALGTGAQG
UniProt Q9UJG1: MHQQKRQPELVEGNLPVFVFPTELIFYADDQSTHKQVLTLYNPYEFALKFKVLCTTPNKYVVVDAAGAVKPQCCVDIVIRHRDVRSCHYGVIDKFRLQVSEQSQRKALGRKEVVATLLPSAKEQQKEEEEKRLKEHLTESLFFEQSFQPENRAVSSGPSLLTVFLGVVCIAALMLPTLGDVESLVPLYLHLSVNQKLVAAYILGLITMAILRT
UniProt Q8NB16: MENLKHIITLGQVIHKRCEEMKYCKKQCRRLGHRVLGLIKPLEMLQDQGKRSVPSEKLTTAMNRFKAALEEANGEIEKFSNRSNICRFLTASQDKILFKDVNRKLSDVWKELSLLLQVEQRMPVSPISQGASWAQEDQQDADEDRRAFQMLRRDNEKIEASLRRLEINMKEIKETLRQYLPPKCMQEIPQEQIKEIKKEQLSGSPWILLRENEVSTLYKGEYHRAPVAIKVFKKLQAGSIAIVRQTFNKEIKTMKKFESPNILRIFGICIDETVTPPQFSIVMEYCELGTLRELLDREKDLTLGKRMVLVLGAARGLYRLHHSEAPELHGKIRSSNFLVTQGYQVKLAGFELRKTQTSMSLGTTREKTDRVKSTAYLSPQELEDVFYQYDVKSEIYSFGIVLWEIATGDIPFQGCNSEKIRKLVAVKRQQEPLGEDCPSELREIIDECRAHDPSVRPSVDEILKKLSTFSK
UniProt Q13201: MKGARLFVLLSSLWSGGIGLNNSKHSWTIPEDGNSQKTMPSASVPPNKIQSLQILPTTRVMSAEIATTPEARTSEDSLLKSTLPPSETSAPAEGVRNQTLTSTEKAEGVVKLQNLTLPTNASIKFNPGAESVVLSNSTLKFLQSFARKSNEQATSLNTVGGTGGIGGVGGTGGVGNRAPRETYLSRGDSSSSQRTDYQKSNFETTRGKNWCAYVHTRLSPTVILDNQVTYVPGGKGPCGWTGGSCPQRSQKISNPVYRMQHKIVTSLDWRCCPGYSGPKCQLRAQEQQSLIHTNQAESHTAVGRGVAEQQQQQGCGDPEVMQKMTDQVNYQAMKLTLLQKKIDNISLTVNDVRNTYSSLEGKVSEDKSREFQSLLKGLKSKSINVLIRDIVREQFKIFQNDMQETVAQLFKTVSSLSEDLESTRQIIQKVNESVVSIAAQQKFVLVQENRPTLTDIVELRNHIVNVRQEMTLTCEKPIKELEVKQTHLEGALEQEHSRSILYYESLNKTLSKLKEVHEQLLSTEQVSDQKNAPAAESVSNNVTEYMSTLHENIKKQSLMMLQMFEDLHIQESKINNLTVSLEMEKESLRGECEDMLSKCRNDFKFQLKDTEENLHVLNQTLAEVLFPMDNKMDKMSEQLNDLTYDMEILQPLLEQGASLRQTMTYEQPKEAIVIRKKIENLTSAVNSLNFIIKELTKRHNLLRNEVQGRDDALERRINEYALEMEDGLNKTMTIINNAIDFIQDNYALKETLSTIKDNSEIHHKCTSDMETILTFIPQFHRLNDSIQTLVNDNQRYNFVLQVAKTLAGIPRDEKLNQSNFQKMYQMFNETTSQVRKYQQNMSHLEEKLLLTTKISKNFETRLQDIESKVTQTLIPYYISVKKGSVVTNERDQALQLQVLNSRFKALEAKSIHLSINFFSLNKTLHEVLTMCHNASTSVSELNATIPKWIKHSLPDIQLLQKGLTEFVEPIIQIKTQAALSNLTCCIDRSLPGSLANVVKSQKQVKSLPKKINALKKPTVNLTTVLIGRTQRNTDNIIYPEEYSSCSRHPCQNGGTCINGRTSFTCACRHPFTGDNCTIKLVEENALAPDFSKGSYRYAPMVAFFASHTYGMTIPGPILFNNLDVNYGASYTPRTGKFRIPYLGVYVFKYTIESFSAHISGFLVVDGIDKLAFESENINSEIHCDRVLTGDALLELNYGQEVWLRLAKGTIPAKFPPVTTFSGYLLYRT

[1] = compound: C/C(=N\NC(=O)C1=CC(=CC=C1)S(=O)(=O)N2CCOCC2)/C3=C(C=CC(=C3)Cl)O
Outline: as §1

[2] = compound: C1=CC(=CC=C1C2=NC3=C(N2)C=C(C=C3)C(=O)N)OC4=CC=C(C=C4)Cl
Outline: as §1

[3] = compound: C1=CC2=C(C=CC(=C2)/C=C\3/C(=O)NC(=NCC4=CC=CS4)S3)N=C1
Outline: as §1

[4] = compound: C1=CC=C2C(=C1)C3=NNC4=CC=CC(=C43)C2=O
Outline: as §1

[5] = compound: C1CCN(C1)C(=O)NC2=CC=CC(=C2)NC3=NC=C(C(=N3)NCCC4=CN=CN4)Br
Outline: as §1

[6] = compound: C1CN(CCC1(CC2=CC=C(C=C2)Cl)N)C3=NC=NC4=C3C=CN4
Outline: as §1

[7] = compound: CC(=O)c1cnc2ccc(-c3cc(Cl)c(O)c(Cl)c3)nc2c1N[C@H]1CC[C@H](CN(C)C)CC1
Outline: as §1

[8] = compound: CC(C)C1=C2N=C(C=C(N2N=C1)NCC3=CC=CC=C3)NCCCCCCN
Outline: as §1

[9] = compound: CC1=C(C2=C(C=C1)C(=O)C3=CC=CC=C3N2CCCN)C
Outline: as §1

[10] = compound: C1=CC(=C(C=C1Cl)C2=NC3=NC=CN=C3C(=N2)NC4=CC=NC=C4)F
Outline: as §1

[11] = compound: C1=CC2=NC=CN=C2C=C1/C=C/3\C(=O)NC(=O)S3
Outline: as §1

[12] = compound: C1=CC=C(C=C1)C2=NC(=C(N2)C3=CC=NC=C3)C4=CC(=C(C=C4)Cl)O
Outline: as §1

IRAK-1-4 Inhibitor I = compound: C1COCCN1CCN2C3=CC=CC=C3N=C2NC(=O)C4=CC(=CC=C4)[N+](=O)[O-] [IRAK-1-4 Inhibitor I]
Outline: as §1

ibrutinib = compound: C=CC(=O)N1CCC[C@@H](n2nc(-c3ccc(Oc4ccccc4)cc3)c3c(N)ncnc32)C1 [ibrutinib]
Outline: as §1

ralimetinib = compound: CC(C)(C)Cn1c(N)nc2ccc(-c3[nH]c(C(C)(C)C)nc3-c3ccc(F)cc3)nc21 [ralimetinib]
Outline: as §1

[13] = compound: CC(C)(O)CC(=O)NCCn1ccc2ncnc(Nc3ccc(Oc4cccc(C(F)(F)F)c4)c(Cl)c3)c21
Outline: as §1

[14] = compound: CC(C)C[C@@H](C=O)NC(=O)[C@H](CC(C)C)NC(=O)[C@H](CC(C)C)NC(=O)OCc1ccccc1
Outline: as §1

pinometostat = compound: CC(C)N(C[C@H]1O[C@@H](n2cnc3c(N)ncnc32)[C@H](O)[C@@H]1O)[C@H]1C[C@@H](CCc2nc3cc(C(C)(C)C)ccc3[nH]2)C1 [pinometostat]
Outline: as §1

[15] = compound: CC1=C(C(CC(=O)N1)C2=CC=C(C=C2)C(F)(F)F)C(=O)NC3=C(C=C4C(=C3)C=NN4)F
Outline: as §1

Measured: log2 fold change

MRM2 (UniProt Q9UI43)
inactive: erlotinib 0.023 | [1] 0.182 | [2] 0.031 | [3] 0.185 | [4] 0.121 | [5] -0.017 | [6] -0.002 | [7] -0.119 | [8] -0.075 | [9] 0.104

MRPL42 (UniProt Q9Y6G3)
inactive: [1] 0.004 | [10] -0.079 | [3] -0.176 | [11] 0.017 | [12] -0.017 | [4] -0.062 | [5] 0.062 | [6] -0.074 | IRAK-1-4 Inhibitor I -0.073 | ibrutinib 0.143 | [7] -0.045 | ralimetinib 0.057 | [13] 0.151 | [14] 0.221 | pinometostat 0.044 | [15] -0.031 | [9] 0.001

MINDY2 (UniProt Q8NBR6)
inactive: erlotinib -0.184 | [10] 0.231 | [2] 0.092 | [5] 0.01 | [6] -0.014 | [13] 0.029 | [8] -0.033 | [9] 0.001

MITF (UniProt O75030)
inactive: erlotinib -0.021 | [1] -0.015 | [2] 0.041 | [3] -0.011 | [4] 0.047 | IRAK-1-4 Inhibitor I 0.166 | [7] -0.212 | pinometostat 0.074
active: [8] -0.581

Quoted at random: 2 records from the list.
MRPL42 (UniProt Q9Y6G3)
inactive: [1] 0.004 | [10] -0.079 | [3] -0.176 | [11] 0.017 | [12] -0.017 | [4] -0.062 | [5] 0.062 | [6] -0.074 | IRAK-1-4 Inhibitor I -0.073 | ibrutinib 0.143 | [7] -0.045 | ralimetinib 0.057 | [13] 0.151 | [14] 0.221 | pinometostat 0.044 | [15] -0.031 | [9] 0.001

MITF (UniProt O75030)
inactive: erlotinib -0.021 | [1] -0.015 | [2] 0.041 | [3] -0.011 | [4] 0.047 | IRAK-1-4 Inhibitor I 0.166 | [7] -0.212 | pinometostat 0.074
active: [8] -0.581

Next part.

MICA (UniProt Q29983)
inactive: erlotinib -0.027 | [1] -0.007 | [2] -0.049 | [3] 0.211 | [11] -0.049 | [12] -0.225 | [4] -0.004 | [5] -0.012 | [6] 0.055 | ibrutinib 0.075 | [7] 0.021 | ralimetinib -0.045 | [8] 0.029 | [14] 0.189 | [9] -0.042

MIER2 (UniProt Q8N344)
inactive: erlotinib 0.466 | [1] 0.017 | [10] 0 | [2] 0.068 | [3] -0.068 | [4] -0.112 | [7] -0.029 | [13] 0.277 | [8] 0.07

MOB2 isoform 3 (UniProt Q70IA6)
inactive: erlotinib 0.029 | [10] -0.077 | [2] -0.001 | [11] 0.06 | [12] 0.025 | [5] 0.135 | [6] -0.22 | ibrutinib -0.061 | ralimetinib 0.039 | [13] -0.15 | [8] -0.01 | [14] -0.021 | [9] 0.106

MID1IP1 (UniProt Q9NPA3)
inactive: erlotinib -0.055 | [10] 0.006 | [2] 0.049 | [11] -0.048 | [12] -0.076 | [5] -0.08 | [6] -0.06 | IRAK-1-4 Inhibitor I -0.134 | ibrutinib -0.007 | ralimetinib -0.022 | [13] -0.254 | [8] -0.039 | [14] 0.17 | pinometostat 0.041 | [15] -0.022 | [9] 0.048

MRNIP (UniProt Q6NTE8)
inactive: erlotinib -0.029 | [10] 0.096 | [2] 0.057 | [12] -0.183 | [5] -0.101 | [6] 0.185 | IRAK-1-4 Inhibitor I 0.123 | ralimetinib -0.07 | [13] -0.06 | [8] 0.081 | [14] 0.087 | pinometostat 0.111 | [15] 0 | [9] 0.062

MLLT11 (UniProt Q13015)
inactive: erlotinib 0.018 | [10] 0.103 | [2] -0.063 | [11] 0.165 | [12] -0.071 | [5] -0.123 | [6] -0.3 | IRAK-1-4 Inhibitor I 0.173 | ibrutinib -0.068 | ralimetinib -0.204 | [13] -0.245 | [8] -0.149 | [14] -0.174 | pinometostat 0.029 | [15] 0.083 | [9] 0.333

MICAL1 isoform 4 (UniProt Q8TDZ2)
inactive: erlotinib 0.07 | [1] 0.164 | [10] -0.071 | [2] 0.07 | [3] 0.415 | [12] 0.038 | [4] -0.108 | IRAK-1-4 Inhibitor I -0.111 | [7] 0.261 | ralimetinib -0.247 | [13] -0.291 | [8] -0.167 | [14] -0.004 | pinometostat 0.112 | [15] 0.146

MOSPD1 isoform 3 (UniProt Q9UJG1)
inactive: erlotinib -0.014 | [2] 0.153 | [8] 0.198 | [15] 0.174

MICALL1 (UniProt Q8N3F8)
inactive: erlotinib 0.131 | [1] -0.012 | [10] -0.067 | [2] -0.103 | [3] 0.04 | [12] -0.205 | [4] -0.028 | [5] -0.01 | [6] 0.066 | IRAK-1-4 Inhibitor I 0.006 | [7] -0.028 | ralimetinib -0.227 | [13] 0.09 | [8] 0.03 | [14] 0.003 | pinometostat 0.002 | [15] -0.147 | [9] -0.043

MRPL18 (UniProt Q9H0U6)
inactive: erlotinib -0.12 | [10] -0.104 | [2] 0.093 | [11] -0.035 | [12] -0.108 | [5] -0.043 | [6] -0.161 | IRAK-1-4 Inhibitor I -0.182 | ibrutinib 0.021 | ralimetinib 0.268 | [13] 0.06 | [8] -0.028 | [14] 0.054 | pinometostat 0.069 | [15] 0.068 | [9] -0.13

MLKL (UniProt Q8NB16)
inactive: erlotinib 0.238 | [10] 0.144 | [2] 0.014 | [5] -0.05 | [6] 0.03 | IRAK-1-4 Inhibitor I 0.009 | [13] 0.039 | [8] -0.239 | pinometostat -0.037 | [9] 0.229

MLH1 (UniProt P40692)
inactive: [1] 0.027 | [10] 0.077 | [3] -0.038 | [11] 0.096 | [4] 0.053 | [5] -0.165 | [6] 0.039 | ibrutinib -0.018 | [7] -0.112 | [13] -0.347 | [9] 0.008

MMRN1 (UniProt Q13201)
inactive: [12] 0.008 | ralimetinib 0.014 | [14] 0.087

— the supplement of paper PMC10849652
